Assay results from publication PMC9166893.
These are yes or no findings as the source states them, for the method shown. In cells and extracts the contact can be indirect.

Biological target: CLASPIN (CLSPN), endogenous in rat H9c2-CK2α-44 myoblasts (rat (endogenous in H9c2))
Assay: co-IP; 1 mg whole cell lysate of H9c2-CK2α-44 cells, immunoprecipitation with mouse monoclonal anti-CLSPN, Western blot; control cells and cells with 3 mM HU for 4 h

binding: no binding
B1: checkpoint kinase CHK1, endogenous in rat H9c2-CK2α-44 myoblasts (enzyme, UniProt Q91ZN7 1-476)
chain: MAVPFVEDWDLVQTLGEGAYGEVQLAVNRITEEAVAVKIVDMKRAIDCPENIKKEICINKMLNHENVVKFYGHRREGNIQYLFLEYCSGGELFDRIEPDIGMPEQDAQRFFHQLMAGVVYLHGIGITHRDIKPENLLLDERDNLKISDFGLATVFRHNNRERLLNKMCGTLPYVAPELLKRKEFHAEPVDVWSCGIVLTAMLAGELPWDQPSDSCQEYSDWKEKKTYLNPWKKIDSAPLALLHKILVENPSARITIPDIKKDRWYNKPLNRGAKRPRATSGGMSESSSGFSKHIHSNLDFSPINSGSSEENVKFSSSQPEPRTGLSLWDTGPSNVDKLVQGISFSQPTCPDHMLVNSQLLGTPGSSQNPWQRLVKRMTRFFTKLDADKSYQCLKETFEKLGYQWKKSCMNQVTVSTMDRRNNKLIFKINLVEMDEKILVDFRLSKGDGLEFKRHFLKIKGKLSDIVSSQKVWFPVT
